For this assay, the target named is T1, standard peptide … (synthetic peptide, C-terminal neo-epitope of collagen type VII alpha 1) (human).
T1 sequence (peptide): GPPGPPGRLV
The assay is described as follows: competitive ELISA; standard peptide competes with the coated biotin-… for the HRP-labelled antibody. For orientation: In an ELISA, binding on a coated surface is turned into a signal by an enzyme label.

Results are given in words; binding and its absence hold for the method and conditions named. Some binding calls cover weakened binding; strength is not graded here.

B1: monoclonal antibody raised against the C-terminal neo-epitope amino acid sequence …-COOH (C7) (antibody, mouse IgG1, kappa, V domains shown)
VH: EVQLQQSGPELVKPGASVKISCKTSGYTFIENTMNWVKQSHGKSLEWIGGINPKIGGSIYNQKFQDKATLTVDKSSSTAYMELRSLTSDDSAVYYCARGIYDEGWHFDVWGAGTTVTVSS
VL: DIVMTQAAFSNPVTLGTSASISCRSSQSLLYSNGITYLYWYLQKPGQSPQLLIYQMSNLASGVPDRFSSSGSGTDFTLRISRVEAEDVGVYYCAQNLELPWTFGGGTKLEIKR
notes: also called monoclonal antibody raised against C7; HRP-labeled monoclonal antibody
Turning to B1, the binding result is recorded as “binds”.

The values above are taken from patent publication US20250012810A1 (NORDIC BIOSCIENCE A S, published 2025).
